According to publication PMC10022624, “A mini-TGA protein modulates gene expression through heterogeneous association with transcription factors” (Plant Physiology, 2022):
Results are given in words; binding and its absence hold for the method and conditions named. Binding can be weak; no strength is given.

Columns and labels:
[1] = target: StTGA2.2, yeast two-hybrid bait fusion (potato (Solanum tuberosum)); test: two-hybrid; Matchmaker Gold, Y2H Gold strain; bait pGBKT7 (BD), prey pGADT7 (AD); growth on SD -L-W-H-A + Xgal + Aur; for the StNPRs dilutions spotted also on media with 0.1 mM or 1.0 mM SA, which promoted the interactions
[2] = target: StTGA2.3, yeast two-hybrid bait fusion (potato (Solanum tuberosum)); test: as above

binding [1]: binds | binding [2]: binds
Substance: StNPR1, yeast two-hybrid fusion (from UniProt A0A9F1UC91)
